These are yes or no findings as the source states them, for the method shown. Binding seen in cells or lysates may run through a third protein. Some entries that bind do so weakly or less than the wild type.
T1: protein tyrosine phosphatase-1B (PTP1B) (UniProt P18031)
T1 sequence: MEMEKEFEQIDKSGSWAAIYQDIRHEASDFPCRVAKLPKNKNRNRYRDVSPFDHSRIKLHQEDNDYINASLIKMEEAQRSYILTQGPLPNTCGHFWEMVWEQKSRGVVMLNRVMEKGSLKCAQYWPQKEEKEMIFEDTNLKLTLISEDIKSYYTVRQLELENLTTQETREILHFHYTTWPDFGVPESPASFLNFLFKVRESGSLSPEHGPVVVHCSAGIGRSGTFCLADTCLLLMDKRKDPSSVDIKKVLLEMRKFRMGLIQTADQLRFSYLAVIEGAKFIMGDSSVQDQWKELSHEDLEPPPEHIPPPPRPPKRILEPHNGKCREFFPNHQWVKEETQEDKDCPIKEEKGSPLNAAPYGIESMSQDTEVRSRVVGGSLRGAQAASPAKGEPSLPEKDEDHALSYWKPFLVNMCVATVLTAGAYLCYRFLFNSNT

The chains behind the UniProt entries cited, without tags or fusion partners.
UniProt P42224: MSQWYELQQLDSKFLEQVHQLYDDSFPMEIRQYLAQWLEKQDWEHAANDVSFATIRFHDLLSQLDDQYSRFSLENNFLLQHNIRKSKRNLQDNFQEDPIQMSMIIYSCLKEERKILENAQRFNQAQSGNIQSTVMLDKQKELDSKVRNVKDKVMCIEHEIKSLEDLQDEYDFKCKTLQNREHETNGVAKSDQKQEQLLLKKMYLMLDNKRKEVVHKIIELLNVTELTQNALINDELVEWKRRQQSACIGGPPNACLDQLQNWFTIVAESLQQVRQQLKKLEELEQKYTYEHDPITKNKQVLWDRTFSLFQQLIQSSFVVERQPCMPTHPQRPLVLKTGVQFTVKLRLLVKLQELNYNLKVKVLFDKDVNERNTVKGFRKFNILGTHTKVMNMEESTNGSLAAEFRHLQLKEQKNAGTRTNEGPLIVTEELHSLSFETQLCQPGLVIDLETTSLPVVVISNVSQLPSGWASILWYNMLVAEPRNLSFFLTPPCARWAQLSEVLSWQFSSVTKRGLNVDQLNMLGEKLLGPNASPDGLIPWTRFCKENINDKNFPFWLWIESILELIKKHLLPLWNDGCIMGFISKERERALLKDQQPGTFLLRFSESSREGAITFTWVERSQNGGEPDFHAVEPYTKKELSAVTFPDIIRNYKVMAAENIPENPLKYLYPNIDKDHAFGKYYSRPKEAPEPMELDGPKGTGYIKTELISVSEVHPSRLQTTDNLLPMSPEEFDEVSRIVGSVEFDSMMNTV


Tests used:
[1] = target: T1, protein tyrosine phosphatase-1B (PTP1B); assay: co-IP; HEK293 cells transfected with plasmids encoding STAT1 and PTP1B; lysates immunoprecipitated for STAT1 or PTP1B with Protein A/G-agarose beads and the relevant antibody, blotted for the Flag-tag
STAT1 = STAT1 (UniProt P42224); assay: as above

Row | binding [1] | binding (STAT1) | Molecule
1 | binds | – | STAT1 (from UniProt P42224 1-750)
2 | – | binds | protein tyrosine phosphatase-1B (PTP1B) (enzyme, UniProt P18031 1-435) MEMEKEFEQIDKSGSWAAIYQDIRHEASDFPCRVAKLPKNKNRNRYRDVSPFDHSRIKLHQEDNDYINASLIKMEEAQRSYILTQGPLPNTCGHFWEMVWEQKSRGVVMLNRVMEKGSLKCAQYWPQKEEKEMIFEDTNLKLTLISEDIKSYYTVRQLELENLTTQETREILHFHYTTWPDFGVPESPASFLNFLFKVRESGSLSPEHGPVVVHCSAGIGRSGTFCLADTCLLLMDKRKDPSSVDIKKVLLEMRKFRMGLIQTADQLRFSYLAVIEGAKFIMGDSSVQDQWKELSHEDLEPPPEHIPPPPRPPKRILEPHNGKCREFFPNHQWVKEETQEDKDCPIKEEKGSPLNAAPYGIESMSQDTEVRSRVVGGSLRGAQAASPAKGEPSLPEKDEDHALSYWKPFLVNMCVATVLTAGAYLCYRFLFNSNT

From article PMC6750887
